Measured values as given in PubChem BioAssay AID1671190 (National Center for Advancing Translational Sciences (NCATS), 2021).
Screen size: about 580,000 compounds; about 6,100 (1.1%) were called active. Inconclusive results, whose numbers are uncertain, are shown with a selection of clear calls. Calls follow the shape of the dose curve; as a rule, active = well fitted inhibition curve with a large enough effect; inconclusive = small, poorly fitted or top-dose-only effect, or another doubt; inactive = no such curve, though single readings can be large or run the other way. Where the call is inconclusive, the potency comes from a doubtful curve fit.

Protein sequences, listed by entry. Tags and fused reporters are not part of them. Lines headed by an entry give the natural chain unless they say otherwise; changes in a name come on top.
UniProt P18054: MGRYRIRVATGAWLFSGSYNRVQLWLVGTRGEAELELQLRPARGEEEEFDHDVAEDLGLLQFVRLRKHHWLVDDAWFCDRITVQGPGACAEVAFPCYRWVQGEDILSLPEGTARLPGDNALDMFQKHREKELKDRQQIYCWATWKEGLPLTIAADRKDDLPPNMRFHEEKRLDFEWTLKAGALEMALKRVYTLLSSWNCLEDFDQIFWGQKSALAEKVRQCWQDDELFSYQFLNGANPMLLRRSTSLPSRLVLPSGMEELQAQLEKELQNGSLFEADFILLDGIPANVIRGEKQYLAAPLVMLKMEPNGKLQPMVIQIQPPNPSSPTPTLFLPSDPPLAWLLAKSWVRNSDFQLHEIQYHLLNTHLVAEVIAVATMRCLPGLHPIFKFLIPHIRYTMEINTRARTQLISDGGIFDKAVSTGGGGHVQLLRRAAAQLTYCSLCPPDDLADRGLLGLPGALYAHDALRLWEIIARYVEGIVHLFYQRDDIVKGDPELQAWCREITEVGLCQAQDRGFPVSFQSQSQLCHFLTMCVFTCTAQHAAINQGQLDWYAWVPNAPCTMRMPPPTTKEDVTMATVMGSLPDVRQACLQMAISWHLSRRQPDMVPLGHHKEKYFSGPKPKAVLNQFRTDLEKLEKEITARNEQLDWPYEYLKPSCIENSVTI

These compounds were tested against Polyunsaturated fatty acid lipoxygenase ALOX12 (Homo sapiens) (UniProt P18054) (assay: Primary qHTS assay for inhibitors of human arachidonate 12S-lipoxygenase (ALOX12): Round 2). Details: purified 12hLO, xylenol orange hydroperoxide absorbance; activity change, negative = inhibition: at 108 µM (top of the series) unless noted.
Outline: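 Hydroperoxide product was detected by ferrous iron/xylenol orange as the 573 to 405 nm absorbance ratio. Arachidonic acid at 40 uM (final) was turned over for 30 min at room temperature by 150 nM human 12hLO, pH 7.0 Hepes buffer, after 15 min compound preincubation.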
% is scaled to controls: 0 for no effect and ±100 for the full control effect; potency is read from the fitted curve at half-maximal effect.

Which Potency does the source give for `c1ccc(-c2c(SSc3c(-c4ccccn4)c(-c4ccccn4)n4ccccc34)c3ccccn3c2-c2ccccn2)nc1` here?
The Potency was inconclusive: 56.2 µM [inhibitor, partial curve, poor fit].

Which “activity change, negative = inhibition” value does the source give for `O=C(COc1ccc2c(=O)c(-c3ccccc3)coc2c1)N1CCN(c2ccccc2)CC1` here?
Its value is inactive: -5.66%.

Which Potency does the source give for `CN(Cc1cccnc1)C(=O)[C@H]1CN(Cc2ccccc2)C[C@H]1C(=O)O` here?
The Potency was inconclusive: 12.6 µM [inhibitor, full curve].

`Cc1ccc(S(=O)(=O)N(C)C)cc1NC(=S)NC(=O)C12CC3CC(CC(C3)C1)C2` was tested. Which Potency did it give?
The Potency was inconclusive: 1.78 µM [inhibitor, full curve, poor fit].

For `O=[N+]([O-])c1ccc(N2CCCC2)cc1N1CCCC1`, which Potency is on record?
Its Potency is inconclusive: 44.7 µM [inhibitor, partial curve, poor fit].

`CC(C)c1nc2c(c(-c3ccc(Cl)cc3)n1)CCN(Cc1cccc3ccccc13)CC2` was tested. Which Potency did it give?
The Potency was inconclusive: 8.91 µM [inhibitor, full curve, poor fit].

`CN(CCc1ccccn1)C1CCCN(S(=O)(=O)c2ccccc2)C1` (stereo not given) was tested. Which Potency did it give?
Its Potency is inconclusive: 44.7 µM [inhibitor, single point].

`N#Cc1ccc(/C=N/NC(=O)c2cc(-c3cccs3)nc3ccccc23)cc1` was tested. Which Potency did it give?
The Potency was inconclusive: 14.1 µM [inhibitor, full curve].

Which “activity change, negative = inhibition” value does the source give for `O=C(Cn1c(=O)n(-c2ccc(F)cc2)c(=O)c2sccc21)c1ccccc1` here?
The value was inactive: 10.5%.

With `COc1cc(OC)c2c(C)c(CC(=O)NC3CC(C)(C)NC(C)(C)C3)c(=O)oc2c1` as the compound, how does the “activity change, negative = inhibition” value read?
The value was inactive: -32.1%.

`Cc1cc(C2=NNC(=NC3CC3)SC2)c(C)n1-c1ccccc1` was tested. Which “activity change, negative = inhibition” value did it give?
The value was inactive: -4.77%.

For `COc1ccc(CNc2ncncc2-c2ccccc2OC)c(OC)c1`, which Potency is on record?
Its Potency is inconclusive: 22.4 µM [inhibitor, partial curve, poor fit].

For `O=S1(=O)C[C@H](N2CCOCC2)[C@@H](COCc2ccccc2)N1`, which Potency is on record?
The Potency was inconclusive: 100 µM [inhibitor, single point].

`Cc1ccc(S(=O)(=O)Nc2ccc3c(c2)C(=O)N([C@@H](C)CO)C[C@@H](C)[C@@H](CN(C)CC2CC2)OCCCC[C@@H](C)O3)cc1` was tested. Which Potency did it give?
The Potency was inconclusive: 35.5 µM [inhibitor, partial curve, poor fit].

With `O=c1cc(CN2CCCn3nc(CO)cc3C2)nc2sc(C3CC3)nn12` as the compound, how does the Potency read?
Its Potency is inconclusive: 14.1 µM [inhibitor, full curve, poor fit].

Which “activity change, negative = inhibition” value does the source give for `N#Cc1cccc(CN2CCC(=O)N([C@H](CO)Cc3ccccc3)CC2)c1` here?
The value was inactive: -0.443%.

`c1ccc(-c2nnc(NC3=NCCC3)o2)cc1` was tested. Which “activity change, negative = inhibition” value did it give?
Its value is inactive: 25.9%.

How did the “activity change, negative = inhibition” value turn out when `CCN(CC)c1cc(C)nc(NCc2ccccc2)n1` was run?
The value was inactive: -16%.

Which Potency does the source give for `CCOC(=O)c1c(O)c2cc(Cl)ccc2n(CC)c1=O` here?
The Potency was inconclusive: 31.6 µM [inhibitor, partial curve, poor fit].

Which activity change, negative = inhibition does the source give for `CC(=O)NCCC(=O)N1Cc2ccccc2CC2(CCCCN2CC2CCNCC2)C1` (stereo not given) here?
The activity change, negative = inhibition was inactive: -13.8% [at 6.33 µM].

With `CCc1cccc(NC(=O)c2ccc3c(Cl)c4c(nc3c2)CCCC4)c1` as the compound, how does the “activity change, negative = inhibition” value read?
The value was inactive: -19.9%.

Which Potency does the source give for `O=C(Cn1cc(C(=O)C(F)(F)F)c2ccccc21)Nc1ccccc1F` here?
The Potency was inconclusive: 56.2 µM [inhibitor, partial curve, poor fit].

How did the “activity change, negative = inhibition” value turn out when `Cc1ccc(C2Cn3nnc(C(=O)N4CCC(C(=O)Nc5ccc(F)c(Cl)c5)CC4)c3CO2)cc1` (stereo not given) was run?
Its value is inactive: 6.75%.

With `O=C(O)COCC(=O)N[C@H]1CCN2C(=O)c3cc(-c4ccc(F)cc4F)ccc3NC(=O)[C@H]12` as the compound, how does the Potency read?
The Potency was inconclusive: 56.2 µM [inhibitor, partial curve, poor fit].

How did the Potency turn out when `COc1cc(/C(C)=N/O)ccc1OC(F)F` was run?
The Potency was inconclusive: 89.1 µM [inhibitor, partial curve, poor fit].

With `CC(=O)Nc1cc(-c2ccc(S(C)(=O)=O)cc2)cn2c(-c3ccc(F)c(Cl)c3)cnc12` as the compound, how does the Potency read?
The Potency was inconclusive: 56.2 µM [inhibitor, partial curve, poor fit].

With `CNC(=O)c1cccc(-c2cnc(Nc3ccc4c(c3)OCCO4)c3c2CCO3)c1` as the compound, how does the “activity change, negative = inhibition” value read?
Its value is inactive: 14.5% [at 176 µM].

For `N#Cc1ccc(-c2nc3ccc(Br)cn3c2Cc2cccc(F)c2)cc1`, which Potency is on record?
The Potency was inconclusive: 44.7 µM [inhibitor, partial curve, poor fit].

For `COCCn1nnnc1C(c1cc(OC)ccc1OC)N1CCc2ccccc2C1` (stereo not given), which Potency is on record?
The Potency was inconclusive: 50.1 µM [inhibitor, partial curve, poor fit].

Which Potency does the source give for `O=C(CC1Nc2ccccc2NC1=O)Nc1ccc2c(c1)OCO2` (stereo not given) here?
Its Potency is inconclusive: 35.5 µM [inhibitor, partial curve, poor fit].

`O=C(O)c1cccc(N/N=C/c2ccc(F)c(F)c2)c1` was tested. Which Potency did it give?
Its Potency is inconclusive: 44.7 µM [inhibitor, partial curve, poor fit].

Which “activity change, negative = inhibition” value does the source give for `CCOc1cc(-c2noc(-c3ccccc3)n2)ccc1OCC(=O)NC(C)C` here?
The value was inactive: -1.67%.

Which Potency does the source give for `O=c1c(CCc2ccccc2)nc2cnc(N3CCNCC3)nc2n1C1CC1` here?
The Potency was inconclusive: 79.4 µM [inhibitor, partial curve, poor fit].

For `CC(Oc1ccc(/C=C(\C#N)C(N)=O)cc1)c1ccccc1` (stereo not given), which Potency is on record?
The Potency was inconclusive: 3.98 µM [inhibitor, full curve, poor fit].

How did the Potency turn out when `CC12CCC(C(N)=O)(c3nc4ccccc4nc31)C2(C)C` (stereo not given) was run?
The Potency was inconclusive: 35.5 µM [inhibitor, single point].

For `CCN1/C(=C/C(C)=C/c2sc3ccccc3[n+]2CC)Sc2ccccc21`, which Potency is on record?
The Potency was inconclusive: 44.7 µM [inhibitor, partial curve, poor fit].

For `O=C(c1ccc(C#Cc2ccccc2)cc1)N1CCN(Cc2ccccc2)CC1`, which Potency is on record?
The Potency was inconclusive: 56.2 µM [inhibitor, single point].

`CCOc1cc(CN2CCCCCC2c2ccccc2Cl)ccc1OCC(N)=O` (stereo not given) was tested. Which Potency did it give?
Its Potency is inconclusive: 89.1 µM [inhibitor, single point].

`Cc1ccc(C(=O)Nc2ccc(C(=O)N/N=C/c3cccnc3)cc2)cc1` was tested. Which Potency did it give?
The Potency was inconclusive: 63.1 µM [inhibitor, partial curve, poor fit].

For `O=C1c2ccccc2C(=O)N1OCCOCCOCCON1C(=O)c2ccccc2C1=O`, which Potency is on record?
The Potency was inconclusive: 44.7 µM [inhibitor, partial curve, poor fit].
